Patent US20220160779A1, “COMPOSITION FOR PROMOTING CARTILAGE TISSUE REGENERATION” (National University Corporation Tokyo Medical and Dental …, priority 2019, published 2022)
At least one structure is not confirmed: it was looked up by name or label, or the drawing left a doubt.

Tested on: synovial MSCs
Assay: Proliferation assay of synovial MSCs with recombinant protein (MTT assay)
Type: cell-based, human
Settings: 0.5% FBS + rh Activin A + inhibitor; FIG. 5E
Method: Primary human synovial cells were isolated from the synovial tissues obtained from patients who underwent total knee arthroplasty (TKA), as described in Sekiya I. et al, Clin Orthop Relat Res, 2015, 473(7), pp. 2316 to 2326. That is, first, 0.5 to 1 mg of synovium obtained by incising the suprapatellar bursa was subjected to collagenase D treatment (Sigma, MO, USA, 3 hours at 37° C.) to disperse nucleated cells. Debris was removed by passing the cell dispersion through a 70 μm nylon mesh. Nucleated cells were seeded in a 15 cm dish at 5.7×10^2 cells/cm^2 and maintained and cultured in MEM-alpha medium supplemented with 10% FBS and antibiotics (Gibco, MA, USA) for 14 days. The cells were then separated from the dish in TripLE solution (Gibco) and seeded twice more in a new dish to obtain a sufficient cell count to be used in the experiments. […]
In addition, the present inventors tried to clarify the molecular mechanism of MSC proliferative activity by Activin A. It has been reported that the ERK and PI3K signal transduction pathways are activated for MSC proliferation (see Uomizu, M. et al, J Med Dent Sci., 2018, vol. 65, pp. 73 to 82). With the above in mind, Activin A (rh Activin A) was applied to synovial MSCs in the presence of PI3K-PKB/Akt and Erk1/Erk2, a specific inhibitor for each of these signal transduction pathways, and the cell count was measured by MTT assay.

Compound: O=c1cc(N2CCOCC2)oc2c(-c3ccccc3)cccc12 [LY294002, reference compound]
- effect of inhibitor on pro-proliferative activity of Activin A / cell count (MTT assay): completely eliminated
